A short description of the data set: Intra-day and inter-day accuracy of quantitation of MTX and MTXPGs spiked in RBC extracts (conversion to MTX, HPLC with post-column photolysis and fluorimetry). From the text: The MTX detection system was based on an HPLC system (Agilent 1100 HPLC chemstation system) equipped with a C18 reversed phase column (25 cm×4.6 mm X Terra MS C18, 5 micrometer particle size; Waters, Milford, Mass.), a post-column photochemical reactor unit (Aura Industries; New York, N.Y.) and a post-reactor unit fluorometer detector. The system also included a C18 pre-column that was changed every 200 injections.
Samples containing 20 to 1000 nmol/L MTX (Sigma, St. Louis, USA) in RBC extracts were run in the HPLC system at a flow rate of 1 ml/min, with a 15-minute linear gradient from 2% acetonitrile/98% mobile phase A (10 mM ammonium acetate, pH 6.5, unless otherwise indicated and 0.2% hydrogen peroxide in water) to 25% acetonitrile/75% mobile phase A, unless otherwise indicated. After 15 minutes, mobile phase was returned to 100% mobile phase A and the column was re-equilibrated for 5 minutes. The samples were maintained at 4° C. and injected every 20 minutes with an autoinjector.
Eluate from the column passed through the photochemical reactor unit in TEFLON™ tubing ( 1/16 inch outer diameter, 0.25 mm inner diameter, 8 meter length) that was connected on-line after the column and before the fluorometer detector and assembled as a knitted coil. The knitted coil was extended lengthwise through the photochemical reactor unit which also housed an elongated 254 nm low pressure mercury ultraviolet lamp (Aura Industries; New York, N.Y.). The time of irradiation of MTX in the photochemical reactor was 24 seconds. Irradiation for less than 24 seconds was achieved by masking all but a portion of the elongated lamp with foil such that only a portion of the knitted coil was irradiated. In particular, the lamp was masked such that only 1 meter of the coil was irradiated with the lamp which at a flow rate of 1 ml/min corresponded to 3 seconds irradiation. Methotrexate photolytic products were measured at an excitation wavelength set at 400 nm and an emission wavelength at 470 nm, unless otherwise indicated. Chromatograms were acquired and analyzed on a Hewlett-Packard Vector XA computer. The retention times described herein for the above-described HPLC system were measured from the time of injection to time of detection at the post-reactor unit fluorometer detector.
MTXPGs were enzymatically converted to MTX by incubation with RBC extract and plasma as follows. RBCs were isolated from healthy donors (Blood bank; San Diego, Calif.) Hemolysates were prepared having 0.88×10^9 RBC per 100 μl. For spiked samples, MTXPG (Schirks Laboratories; Jona, Switzerland) was added to RBC extracts at a final concentration of 1 μM (from stock solutions containing 100 μM MTXPG in 0.1 N potassium hydroxide). Reconstituted plasma was prepared from lyophilized plasma (Sigma, St. Louis, USA; Cat. No. P9523) and 100 μl was added to 50 μl of RBC extract, mixed for 30 seconds, and 100 μl of buffer containing 100 mM potassium phosphate pH 4.5 and 150 mM mercaptoethanol was added. […] Samples were incubated for 12-14 hours, unless otherwise indicated, in the dark at 37° C. After incubation 30 μl of 70% perchloric acid was added to the mixture, vortexed for 15 seconds and centrifuged for 10 minutes. A total volume of 80 μl was injected onto the HPLC system for analysis using the MTX detection system described in Example I.
The intra-day accuracy and inter-day accuracy for quantitation of MTX and MTXPGs are shown in Table I. RBC extracts were incubated with 20, 100 or 500 nmol/L of MTX, MTXPG2 or MTXPG2-7 (Target concentrations; see Table I), and the observed concentration of MTX was determined by the HPLC method described in Example I. For the intra-day accuracy assessment, the mean observed MTX concentration was determined for 10 spiked replicates at each target concentration (see Table I). The mean observed MTX concentrations for inter-day accuracy assessment were based on three replicates from five different days (Table 1). […]

Setting [1] is: Inter-day (n = 5), target conc. 50.0 nmol/L.
[2] abbreviates: Inter-day (n = 5), target conc. 250.0 nmol/L.
Setting [3] is: Inter-day (n = 5), target conc. 500.0 nmol/L.
[4] abbreviates: Intra-day (n = 10), target conc. 50.0 nmol/L.
Setting [5] is: Intra-day (n = 10), target conc. 250.0 nmol/L.
The mark [6] stands for this setting: Intra-day (n = 10), target conc. 500.0 nmol/L.

The text below walks through data of patent US7563590B2, “Methods of quantifying methotrexate metabolites” (Cypress Bioscience Inc., priority 2002, dated 2009).

With `CN(Cc1cnc2nc(N)nc(N)c2n1)c1ccc(C(=O)N[C@@H](CCC(=O)O)C(=O)O)cc1` [MTX, methotrexate], the “Mean accuracy of target value” reads like this: under setting [1], 97.9%; under setting [2], 104.3%; under setting [3], 103.5%; under setting [4], 90.0%; under setting [5], 100.1%; under setting [6], 100.8%. The “Mean observed MTXPG1 conc.” value reads like this: under setting [1], 48.9 nmol/L; under setting [2], 260.8 nmol/L; under setting [3], 517.3 nmol/L; under setting [4], 45.0 nmol/L; under setting [5], 250.2 nmol/L; under setting [6], 504.2 nmol/L.
In the case of `CN(Cc1cnc2nc(N)nc(N)c2n1)c1ccc(C(=O)N[C@@H](CCC(=O)N[C@@H](CCC(=O)O)C(=O)O)C(=O)O)cc1` [MTXPG2], the “Mean accuracy of target value” under setting [1] came out at 97.7%; the “Mean accuracy of target value” under setting [2] came out at 95.4%; the “Mean accuracy of target value” under setting [3] worked out at 98.2%; the “Mean accuracy of target value” under setting [4] is reported as 96.4%; the “Mean accuracy of target value” under setting [5] worked out at 92.5%; the “Mean accuracy of target value” under setting [6] came out at 94.6%. In addition, the “Mean observed MTXPG1 conc.” value reads like this: under setting [1], 48.8 nmol/L; under setting [2], 238.5 nmol/L; under setting [3], 490.8 nmol/L; under setting [4], 48.2 nmol/L; under setting [5], 231.1 nmol/L; under setting [6], 473.2 nmol/L.
